Measured values as given in paper PMC12009988.
Results are given in words; binding and its absence hold for the method and conditions named. In cells and extracts the contact can be indirect. Some entries that bind do so weakly or less than the wild type. For some assays here: Where a sequence is shown, tags or fusion partners need not be part of it. One block for each molecule: values may come before it.

Chains of the proteins cited; added tags and fusions are not shown.
UniProt Q92831: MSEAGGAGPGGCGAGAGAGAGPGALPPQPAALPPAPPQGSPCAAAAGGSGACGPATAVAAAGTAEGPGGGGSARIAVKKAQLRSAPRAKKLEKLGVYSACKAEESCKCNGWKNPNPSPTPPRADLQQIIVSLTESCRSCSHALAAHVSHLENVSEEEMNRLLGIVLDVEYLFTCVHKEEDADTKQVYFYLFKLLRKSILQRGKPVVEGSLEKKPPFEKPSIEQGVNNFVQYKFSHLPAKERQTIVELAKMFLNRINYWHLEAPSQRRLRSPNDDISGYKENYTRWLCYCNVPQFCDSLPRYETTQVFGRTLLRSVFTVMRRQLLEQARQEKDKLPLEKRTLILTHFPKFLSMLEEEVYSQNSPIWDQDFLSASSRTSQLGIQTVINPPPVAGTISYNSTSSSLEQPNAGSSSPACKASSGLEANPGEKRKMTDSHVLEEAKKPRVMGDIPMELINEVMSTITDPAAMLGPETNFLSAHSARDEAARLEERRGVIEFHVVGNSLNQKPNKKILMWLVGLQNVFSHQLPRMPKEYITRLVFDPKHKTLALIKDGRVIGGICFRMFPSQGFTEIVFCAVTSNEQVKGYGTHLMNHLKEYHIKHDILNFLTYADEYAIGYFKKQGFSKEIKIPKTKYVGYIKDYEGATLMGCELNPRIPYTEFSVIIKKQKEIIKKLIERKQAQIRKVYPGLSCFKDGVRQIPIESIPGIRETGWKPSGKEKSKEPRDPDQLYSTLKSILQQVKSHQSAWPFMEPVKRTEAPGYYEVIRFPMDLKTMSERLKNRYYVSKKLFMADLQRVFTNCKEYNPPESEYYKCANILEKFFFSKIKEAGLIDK

Key:
[1] = target: Ku80 (construct of the experiments with HDAC8, PCAF and CBX4 not stated) (UniProt P13010); experiment: co-IP; co-IP with and without irradiation (Supplementary Fig. 3b)
[2] = target: Ku80 (construct of the experiments with HDAC8, PCAF and CBX4 not stated) (UniProt P13010); experiment: co-IP; co-IP with DNase I treatment, with and without radiation exposure

binding [1]: binds
Molecule: p300-CBP-associated factor (PCAF) (from UniProt Q92831 1-832) (enzyme)

binding [2]: binds
B1: HDAC8 (Histone deacetylase 8) (enzyme, UniProt Q9BY41 1-377)
chain: MEEPEEPADSGQSLVPVYIYSPEYVSMCDSLAKIPKRASMVHSLIEAYALHKQMRIVKPKVASMEEMATFHTDAYLQHLQKVSQEGDDDHPDSIEYGLGYDCPATEGIFDYAAAIGGATITAAQCLIDGMCKVAINWSGGWHHAKKDEASGFCYLNDAVLGILRLRRKFERILYVDLDLHHGDGVEDAFSFTSKVMTVSLHKFSPGFFPGTGDVSDVGLGKGRYYSVNVPIQDGIQDEKYYQICESVLKEVYQAFNPKAVVLQLGADTIAGDPMCSFNMTPVGIGKCLKYILQWQLATLILGGGGYNLANTARCWTYLTGVILGKTLSSEIPDHEFFTAYGPDYVLEITPSCRPDRNEPHRIQQILNYIKGNLKHVV
